One test has as its target human CTLA-4 (human) (UniProt P16410). In words: CELISA on CHO-K1 cells transiently transfected with human CTLA-4, panel Human.
For another test, the target named is Mouse. The test can be described thus: CELISA on CHO-K1 cells transiently transfected with mouse CTLA-4, panel Mouse.

Protein sequences, listed by entry. Tags and fused reporters are not part of them. Lines headed by an entry give the natural chain unless they say otherwise; changes in a name come on top.
UniProt P16410: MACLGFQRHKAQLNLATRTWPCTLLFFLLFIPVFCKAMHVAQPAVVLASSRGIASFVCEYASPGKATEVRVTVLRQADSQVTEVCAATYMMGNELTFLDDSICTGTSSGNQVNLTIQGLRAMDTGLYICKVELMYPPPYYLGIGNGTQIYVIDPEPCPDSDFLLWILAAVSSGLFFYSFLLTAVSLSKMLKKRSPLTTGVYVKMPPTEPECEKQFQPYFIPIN

These are yes or no findings as the source states them, for the method shown. Some results given as binding are weak or reduced against the parent protein; the word gives no strength.

B1: hCTLA4.27A.C4 (antibody, V domains shown)
VH: QVQLQQPGAVLVRPGVSVKLSCKASGYSFTTYWMNWVKQRPGQGLEWIGMIHPSDSETSLNQAFKDKATLTIDKSSSTAYMQLSSPTSEDSAVYFCARMGRRNPYYFDYWGQGTTLTVSS
VL: DIQMTQSPVSLSVSVGETVTITCRPSENLYTNLAWYQQKQGKSPQLLVYGATNLADGVPSRFSGSGSGTQYSLRINSLQSEDFGTYYCQHLWGTPFTFGSGTKLELK
Consider B1, for which the binding entry with human CTLA-4 (human) is “binds”; with Mouse, “no binding (tested: log nM about 1.8 (about 60 nM))”.

The values are drawn from patent US20180037654A1.
